The source of these data is paper PMC5618791 (Chemical Science, 2017).

Data set [1] in a line: general procedure: Fmoc solid-phase peptide synthesis; Rink Amide MBHA; HCTU and DIPEA in DMF. The conditions noted are these: whole synthesis, UV-LCMS trace (200-300 nm), scale 0.1 mmol.
Data set [2] can be described thus: general procedure: Fmoc solid-phase peptide synthesis; Rink Amide MBHA resin (0.36 mmol g-1); HCTU and DIPEA in DMF. The following applies: for isolated mass / isolated yield: whole synthesis; for isolated yield: scale of the general procedure 0.1 mmol; for cyclisation yield / final purity (method not given): cyclisation step; for final purity (method not given): UV-LCMS trace (200-300 nm).

Some peptides are written in HELM: one residue between dots, names in brackets for other building blocks, links after the first $. One purity is given for all peptides; the source may state it once.

Take “PEPTIDE1{[ac].K.E.T.A.A.[hCys].K.F.E.[hCys].Q.H.M.D.S.[am]}$PEPTIDE1,PEPTIDE1,7:R3-11:R3$$$V2.0”: in data set [1], the “final purity (method not given)” value is “higher than 95%”. In data set [2], this substance had an isolated mass of 8.1 mg and an isolated yield of 22.2%.
In the case of “PEPTIDE1{[ac].K.E.T.A.A.C.K.F.E.C.Q.H.M.D.S.[am]}$PEPTIDE1,PEPTIDE1,7:R3-11:R3$$$V2.0”, the “final purity (method not given)” value in data set [1] is given as “higher than 95%”. In data set [2], this substance came in with an isolated mass of 6.3 mg and an isolated yield of 27.1%.
On to “PEPTIDE1{[ac].E.D.I.I.R.N.I.A.R.H.L.A.C.V.G.D.C.[Nle].D.R.S.I.W.[am]}|CHEM1{[Mal]}$PEPTIDE1,CHEM1,14:R3-1:R1|PEPTIDE1,CHEM1,18:R3-1:R2$$$V2.0”, for which, in data set [2], the cyclisation yield was 52% and the “final purity (method not given)” value is “higher than 95%”.
For “PEPTIDE1{[ac].K.E.T.A.A.C.K.F.E.C.Q.H.M.D.S.[am]}|CHEM1{[Mal]}$PEPTIDE1,CHEM1,7:R3-1:R1|PEPTIDE1,CHEM1,11:R3-1:R2$$$V2.0”, in that order: 65% and “higher than 95%”.
Taken in the same sequence, the figures for “PEPTIDE1{[ac].K.E.T.A.A.[hCys].K.F.E.[hCys].Q.H.M.D.S.[am]}|CHEM1{[Mal]}$PEPTIDE1,CHEM1,7:R3-1:R1|PEPTIDE1,CHEM1,11:R3-1:R2$$$V2.0” were 56% and “higher than 95%”.
